The supplement of paper PMC6411743
± gives the standard deviation of the averaged measurements. The list shows a part of the results.

Sequences of proteins named here, by UniProt entry; tags and fusion partners are left off. A change or cut given only in a name is not applied to a line headed by its entry.
UniProt P23229: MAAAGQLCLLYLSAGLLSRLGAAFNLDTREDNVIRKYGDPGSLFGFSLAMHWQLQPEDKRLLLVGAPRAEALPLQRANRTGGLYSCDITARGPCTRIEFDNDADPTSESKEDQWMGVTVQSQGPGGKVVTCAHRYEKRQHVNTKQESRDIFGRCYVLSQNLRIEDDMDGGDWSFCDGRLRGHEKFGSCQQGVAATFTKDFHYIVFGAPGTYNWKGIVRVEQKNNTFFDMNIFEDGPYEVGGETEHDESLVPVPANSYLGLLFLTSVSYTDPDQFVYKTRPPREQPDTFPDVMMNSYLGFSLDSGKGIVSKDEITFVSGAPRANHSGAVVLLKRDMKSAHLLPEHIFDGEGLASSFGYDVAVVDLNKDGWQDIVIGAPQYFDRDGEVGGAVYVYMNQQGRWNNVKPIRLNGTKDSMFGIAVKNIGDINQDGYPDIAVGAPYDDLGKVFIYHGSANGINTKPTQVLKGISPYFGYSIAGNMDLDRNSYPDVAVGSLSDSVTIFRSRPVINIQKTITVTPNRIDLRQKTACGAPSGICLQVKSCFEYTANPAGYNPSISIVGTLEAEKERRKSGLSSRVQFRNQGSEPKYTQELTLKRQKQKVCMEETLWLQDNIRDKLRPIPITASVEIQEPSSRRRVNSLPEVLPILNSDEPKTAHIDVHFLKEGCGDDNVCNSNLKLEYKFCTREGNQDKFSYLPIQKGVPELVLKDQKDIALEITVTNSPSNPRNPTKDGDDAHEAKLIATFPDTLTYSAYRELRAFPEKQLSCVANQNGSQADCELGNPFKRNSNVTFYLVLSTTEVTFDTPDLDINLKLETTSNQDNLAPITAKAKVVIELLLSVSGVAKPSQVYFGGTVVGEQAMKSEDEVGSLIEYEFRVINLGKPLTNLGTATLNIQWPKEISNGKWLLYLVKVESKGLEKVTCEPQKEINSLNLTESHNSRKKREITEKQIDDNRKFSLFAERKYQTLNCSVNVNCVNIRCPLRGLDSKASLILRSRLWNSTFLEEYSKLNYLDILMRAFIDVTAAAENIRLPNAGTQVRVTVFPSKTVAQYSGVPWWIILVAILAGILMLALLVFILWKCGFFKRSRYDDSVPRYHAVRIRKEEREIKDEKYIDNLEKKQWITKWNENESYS
UniProt P13073, whole entry: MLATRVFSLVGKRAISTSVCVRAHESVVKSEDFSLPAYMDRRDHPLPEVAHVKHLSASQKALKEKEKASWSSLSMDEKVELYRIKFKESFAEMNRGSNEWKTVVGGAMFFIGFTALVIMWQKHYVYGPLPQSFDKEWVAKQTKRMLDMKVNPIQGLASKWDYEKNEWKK
UniProt P26196: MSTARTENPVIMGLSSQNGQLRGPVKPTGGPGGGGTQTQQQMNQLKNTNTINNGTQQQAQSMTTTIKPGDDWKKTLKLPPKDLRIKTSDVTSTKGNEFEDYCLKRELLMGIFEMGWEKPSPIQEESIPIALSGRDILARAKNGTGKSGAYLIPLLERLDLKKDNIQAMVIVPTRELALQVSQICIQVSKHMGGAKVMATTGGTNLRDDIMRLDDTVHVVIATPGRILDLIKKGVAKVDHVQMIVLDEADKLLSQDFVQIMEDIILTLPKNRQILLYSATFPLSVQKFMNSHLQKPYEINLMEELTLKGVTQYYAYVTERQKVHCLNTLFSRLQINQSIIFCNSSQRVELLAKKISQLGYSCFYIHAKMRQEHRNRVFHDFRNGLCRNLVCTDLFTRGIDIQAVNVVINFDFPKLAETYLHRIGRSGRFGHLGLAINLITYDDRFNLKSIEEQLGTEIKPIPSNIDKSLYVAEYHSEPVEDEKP
UniProt P09429: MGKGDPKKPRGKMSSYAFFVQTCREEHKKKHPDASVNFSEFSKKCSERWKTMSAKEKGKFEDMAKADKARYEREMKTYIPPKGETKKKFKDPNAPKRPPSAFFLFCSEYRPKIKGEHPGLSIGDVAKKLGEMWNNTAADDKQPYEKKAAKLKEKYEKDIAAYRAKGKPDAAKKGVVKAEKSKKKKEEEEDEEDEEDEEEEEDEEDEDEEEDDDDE
UniProt P12270, whole entry: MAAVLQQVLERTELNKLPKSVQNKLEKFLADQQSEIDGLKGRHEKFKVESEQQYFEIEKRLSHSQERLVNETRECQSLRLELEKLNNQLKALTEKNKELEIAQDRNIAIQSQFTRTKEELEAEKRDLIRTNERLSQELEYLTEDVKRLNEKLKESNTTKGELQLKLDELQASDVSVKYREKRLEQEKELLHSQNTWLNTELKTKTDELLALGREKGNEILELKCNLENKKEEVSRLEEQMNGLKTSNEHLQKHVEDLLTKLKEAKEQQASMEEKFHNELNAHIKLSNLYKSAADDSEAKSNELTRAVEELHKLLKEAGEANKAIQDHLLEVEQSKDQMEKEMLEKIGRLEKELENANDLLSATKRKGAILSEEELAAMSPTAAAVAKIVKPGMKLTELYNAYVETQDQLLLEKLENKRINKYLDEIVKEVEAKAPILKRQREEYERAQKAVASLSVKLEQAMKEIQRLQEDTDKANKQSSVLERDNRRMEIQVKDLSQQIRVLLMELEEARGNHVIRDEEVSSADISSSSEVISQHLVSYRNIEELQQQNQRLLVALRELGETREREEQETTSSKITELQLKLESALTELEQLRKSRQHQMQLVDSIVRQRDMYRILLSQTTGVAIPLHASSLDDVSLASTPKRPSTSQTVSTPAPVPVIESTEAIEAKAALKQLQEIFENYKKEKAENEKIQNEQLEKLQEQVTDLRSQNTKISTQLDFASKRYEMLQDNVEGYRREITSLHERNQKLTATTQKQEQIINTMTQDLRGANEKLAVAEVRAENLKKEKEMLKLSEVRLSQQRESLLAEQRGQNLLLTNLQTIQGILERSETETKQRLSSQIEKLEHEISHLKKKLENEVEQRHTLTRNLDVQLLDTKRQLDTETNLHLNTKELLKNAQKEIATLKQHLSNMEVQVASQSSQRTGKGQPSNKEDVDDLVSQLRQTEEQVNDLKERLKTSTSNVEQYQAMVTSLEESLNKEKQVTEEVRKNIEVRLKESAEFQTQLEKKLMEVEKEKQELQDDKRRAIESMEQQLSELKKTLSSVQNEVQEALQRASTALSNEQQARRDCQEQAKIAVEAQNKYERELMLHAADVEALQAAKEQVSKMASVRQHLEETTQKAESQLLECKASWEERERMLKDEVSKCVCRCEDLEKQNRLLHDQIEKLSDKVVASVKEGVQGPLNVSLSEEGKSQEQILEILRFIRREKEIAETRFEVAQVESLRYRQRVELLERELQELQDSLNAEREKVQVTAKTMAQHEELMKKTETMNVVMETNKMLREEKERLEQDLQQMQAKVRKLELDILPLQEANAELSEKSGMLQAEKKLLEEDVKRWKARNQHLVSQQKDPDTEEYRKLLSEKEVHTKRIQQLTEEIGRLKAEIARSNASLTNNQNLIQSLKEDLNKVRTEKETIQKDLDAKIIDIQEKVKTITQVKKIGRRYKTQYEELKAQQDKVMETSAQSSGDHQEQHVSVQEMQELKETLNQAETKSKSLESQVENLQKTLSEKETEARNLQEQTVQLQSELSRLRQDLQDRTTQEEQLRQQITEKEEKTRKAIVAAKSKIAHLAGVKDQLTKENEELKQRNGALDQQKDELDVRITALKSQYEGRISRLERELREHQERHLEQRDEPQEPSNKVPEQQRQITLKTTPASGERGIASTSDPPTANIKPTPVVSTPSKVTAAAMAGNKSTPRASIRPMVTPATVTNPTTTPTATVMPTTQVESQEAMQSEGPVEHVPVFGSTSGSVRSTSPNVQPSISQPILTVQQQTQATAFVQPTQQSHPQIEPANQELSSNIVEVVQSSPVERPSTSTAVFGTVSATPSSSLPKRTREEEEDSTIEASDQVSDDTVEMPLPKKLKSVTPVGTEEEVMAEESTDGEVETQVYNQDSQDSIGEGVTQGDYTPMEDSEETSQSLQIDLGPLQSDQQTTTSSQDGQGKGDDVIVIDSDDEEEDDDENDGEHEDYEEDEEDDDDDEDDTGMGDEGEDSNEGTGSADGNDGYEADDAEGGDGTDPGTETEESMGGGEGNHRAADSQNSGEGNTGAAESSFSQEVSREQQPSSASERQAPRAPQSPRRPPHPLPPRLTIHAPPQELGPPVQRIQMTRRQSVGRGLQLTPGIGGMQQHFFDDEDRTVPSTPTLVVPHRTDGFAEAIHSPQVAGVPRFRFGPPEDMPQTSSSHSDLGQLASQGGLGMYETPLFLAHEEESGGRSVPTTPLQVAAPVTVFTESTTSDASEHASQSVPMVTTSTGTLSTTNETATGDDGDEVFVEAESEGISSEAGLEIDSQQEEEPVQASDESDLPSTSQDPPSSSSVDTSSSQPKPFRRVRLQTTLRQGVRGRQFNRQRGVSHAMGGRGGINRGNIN
UniProt P08648, whole entry: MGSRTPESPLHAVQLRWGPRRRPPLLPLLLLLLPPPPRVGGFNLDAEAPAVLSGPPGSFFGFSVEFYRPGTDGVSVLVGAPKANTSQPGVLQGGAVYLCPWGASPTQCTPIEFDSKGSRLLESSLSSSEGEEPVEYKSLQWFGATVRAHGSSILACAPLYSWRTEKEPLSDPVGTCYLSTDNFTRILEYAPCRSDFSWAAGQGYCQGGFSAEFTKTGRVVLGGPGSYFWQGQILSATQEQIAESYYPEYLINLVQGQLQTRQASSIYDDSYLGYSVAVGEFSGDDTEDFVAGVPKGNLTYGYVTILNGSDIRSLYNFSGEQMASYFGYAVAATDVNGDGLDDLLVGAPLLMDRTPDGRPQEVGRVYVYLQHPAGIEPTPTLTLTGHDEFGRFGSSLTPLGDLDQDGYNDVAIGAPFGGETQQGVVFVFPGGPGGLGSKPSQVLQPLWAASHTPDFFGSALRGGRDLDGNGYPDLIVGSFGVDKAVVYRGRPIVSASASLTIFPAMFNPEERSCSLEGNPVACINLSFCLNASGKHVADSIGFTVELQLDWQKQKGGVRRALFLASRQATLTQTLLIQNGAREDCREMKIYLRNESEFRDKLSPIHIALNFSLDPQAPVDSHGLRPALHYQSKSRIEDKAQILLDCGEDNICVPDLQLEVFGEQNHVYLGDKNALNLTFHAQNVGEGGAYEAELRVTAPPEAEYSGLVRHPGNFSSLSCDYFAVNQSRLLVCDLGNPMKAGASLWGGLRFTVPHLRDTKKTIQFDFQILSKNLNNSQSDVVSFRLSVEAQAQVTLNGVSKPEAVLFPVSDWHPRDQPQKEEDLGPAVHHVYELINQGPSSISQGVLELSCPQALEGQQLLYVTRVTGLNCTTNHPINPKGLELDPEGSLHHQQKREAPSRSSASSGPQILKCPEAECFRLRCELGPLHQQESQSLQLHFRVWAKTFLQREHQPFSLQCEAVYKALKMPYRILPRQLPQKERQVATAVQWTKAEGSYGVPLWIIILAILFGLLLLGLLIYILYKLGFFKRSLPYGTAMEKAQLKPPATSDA
UniProt P25205: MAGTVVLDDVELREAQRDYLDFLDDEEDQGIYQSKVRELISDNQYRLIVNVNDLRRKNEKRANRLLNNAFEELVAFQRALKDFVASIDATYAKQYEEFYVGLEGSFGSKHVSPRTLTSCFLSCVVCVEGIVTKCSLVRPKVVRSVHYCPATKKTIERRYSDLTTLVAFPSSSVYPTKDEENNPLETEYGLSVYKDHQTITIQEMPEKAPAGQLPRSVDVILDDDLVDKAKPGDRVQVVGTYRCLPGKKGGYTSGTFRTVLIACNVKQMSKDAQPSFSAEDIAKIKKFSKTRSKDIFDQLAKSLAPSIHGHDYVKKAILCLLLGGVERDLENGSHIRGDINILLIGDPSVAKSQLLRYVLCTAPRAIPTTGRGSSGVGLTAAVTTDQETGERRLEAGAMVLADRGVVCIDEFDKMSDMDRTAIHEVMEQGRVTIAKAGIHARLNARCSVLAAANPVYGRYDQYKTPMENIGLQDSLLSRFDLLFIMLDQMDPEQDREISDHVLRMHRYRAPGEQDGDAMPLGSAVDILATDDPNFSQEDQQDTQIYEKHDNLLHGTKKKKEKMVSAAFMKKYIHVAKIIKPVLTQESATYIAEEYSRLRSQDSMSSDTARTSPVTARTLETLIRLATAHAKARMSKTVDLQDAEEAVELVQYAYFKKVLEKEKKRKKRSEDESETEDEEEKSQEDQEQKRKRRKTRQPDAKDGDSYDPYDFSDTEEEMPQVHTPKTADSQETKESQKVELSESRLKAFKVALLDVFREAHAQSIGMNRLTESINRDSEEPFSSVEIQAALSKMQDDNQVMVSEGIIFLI
UniProt P16220: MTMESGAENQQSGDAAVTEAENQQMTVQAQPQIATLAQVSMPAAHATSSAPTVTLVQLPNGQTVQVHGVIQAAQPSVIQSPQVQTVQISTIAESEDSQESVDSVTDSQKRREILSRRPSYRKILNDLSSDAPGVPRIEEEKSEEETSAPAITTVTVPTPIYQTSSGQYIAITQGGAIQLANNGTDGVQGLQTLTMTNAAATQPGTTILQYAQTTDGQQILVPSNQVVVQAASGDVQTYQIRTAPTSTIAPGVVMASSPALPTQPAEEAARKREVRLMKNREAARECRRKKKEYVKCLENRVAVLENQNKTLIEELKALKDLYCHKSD

Compound: Nc1nc2c(ncn2[C@@H]2O[C@H](COP(=O)(O)OP(=O)(O)OP(=O)(O)O)[C@@H](O)[C@H]2O)c(=O)[nH]1 [guanosine triphosphate]
Test: NP40-soluble protein abundance relative to vehicle (solubility fold change) (ratio); higher = more soluble protein in presence of GTP
In short: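 Eight concentrations, 0.1 to 10 mM, were tested on Jurkat crude lysate for 10 min at room temperature and then 3 min at 37 °C, in three independent experiments. The lysate was solubilised with 0.8% NP40 and benzonase, ultracentrifuged, and the supernatant TMT-labelled for LC-MS/MS. Each value is the fold change against the detergent-processed vehicle in its own replicate, from vsn-normalised intensities.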

| Target | NP40-soluble protein abundance (concentration: 0.1mM) | NP40-soluble protein abundance (concentration: 0.5mM) | NP40-soluble protein abundance (concentration: 1mM) | NP40-soluble protein abundance (concentration: 2mM) | NP40-soluble protein abundance (concentration: 4mM) | NP40-soluble protein abundance (concentration: 6mM) | NP40-soluble protein abundance (concentration: 8mM) | NP40-soluble protein abundance (concentration: 10mM) |
| --- | --- | --- | --- | --- | --- | --- | --- | --- |
| UniProt P13716 and related entries | 1.03 ± 0.018 | 1.03 ± 0.024 | 0.995 ± 0.049 | 0.999 ± 0.032 | 1.03 ± 0.022 | 0.964 ± 0.022 | 0.992 ± 0.044 | 0.991 ± 0.043 |
| UniProt P17706 and related entries | 0.995 ± 0.051 | 0.982 ± 0.041 | 0.937 ± 0.058 | 0.958 ± 0.044 | 0.967 ± 0.022 | 0.937 ± 0.043 | 0.942 ± 0.035 | 0.928 ± 0.037 |
| LAMP1 (UniProt P11279) | 0.896 ± 0.081 | 0.879 ± 0.077 | 0.954 ± 0.028 | 0.885 ± 0.1 | 0.881 ± 0.11 | 0.904 ± 0.094 | 0.918 ± 0.062 | 0.885 ± 0.071 |
| UniProt P18433 and related entries | 0.993 ± 0.049 | 0.995 ± 0.11 | 0.966 ± 0.076 | 0.939 ± 0.075 | 0.938 ± 0.11 | 0.941 ± 0.11 | 0.957 ± 0.062 | 0.952 ± 0.13 |
| UniProt P23229 and related entries | 1.01 ± 0.02 | 0.992 ± 0.11 | 0.978 ± 0.06 | 0.999 ± 0.058 | 0.975 ± 0.04 | 0.963 ± 0.085 | 1.02 ± 0.053 | 0.969 ± 0.058 |
| SNRPB2 (UniProt P08579) | 0.959 ± 0.086 | 0.89 ± 0.03 | 1.06 ± 0.054 | 1.03 ± 0.033 | 1.1 ± 0.066 | 1.05 ± 0.018 | 1.07 ± 0.11 | 1.07 ± 0.05 |
| ENO2 (UniProt P09104) | 0.941 ± 0.092 | 0.938 ± 0.067 | 0.948 ± 0.038 | 0.9 ± 0.048 | 0.908 ± 0.069 | 0.895 ± 0.037 | 0.901 ± 0.039 | 0.88 ± 0.081 |
| UniProt P17612 | 1.07 ± 0.076 | 1.05 ± 0.065 | 1.04 ± 0.078 | 0.989 ± 0.065 | 1.05 ± 0.12 | 0.996 ± 0.086 | 1.03 ± 0.11 | 0.942 ± 0.024 |
| UniProt P12931 and related entries | 1.05 ± 0.05 | 1.05 ± 0.063 | 0.955 ± 0.018 | 0.9845 ± 0.0092 | 0.905 ± 0.063 | 0.896 ± 0.015 | 0.894 ± 0.052 | 0.837 ± 0.074 |
| UniProt P11586 and related entries | 0.9571 ± 0.0065 | 0.977 ± 0.025 | 0.9434 ± 0.0062 | 0.9157 ± 0.0038 | 0.9095 ± 0.0076 | 0.9153 ± 0.0059 | 0.895 ± 0.012 | 0.861 ± 0.023 |
| COX4I1 (UniProt P13073) | 0.922 ± 0.0099 | 0.893 ± 0.043 | 0.961 ± 0.02 | 0.957 ± 0.041 | 0.946 ± 0.03 | 0.947 ± 0.038 | 0.898 ± 0.058 | 0.922 ± 0.029 |
| SLC9A1 (UniProt P19634) | 1.01 ± 0.075 | 1.02 ± 0.039 | 0.98 ± 0.059 | 1.03 ± 0.037 | 0.995 ± 0.024 | 1 ± 0.018 | 1.06 ± 0.071 | 1.03 ± 0.045 |
| DDX6 (UniProt P26196) | 0.988 ± 0.049 | 0.999 ± 0.03 | 0.952 ± 0.033 | 0.9702 ± 0.004 | 0.984 ± 0.035 | 1 ± 0.025 | 0.95 ± 0.064 | 0.952 ± 0.05 |
| UniProt P25685 and related entries | 0.959 ± 0.024 | 0.966 ± 0.028 | 0.929 ± 0.039 | 0.887 ± 0.048 | 0.871 ± 0.047 | 0.896 ± 0.053 | 0.906 ± 0.034 | 0.876 ± 0.05 |
| HMGB1 (UniProt P09429) | 0.783 ± 0.059 | 0.784 ± 0.048 | 1.06 ± 0.051 | 0.99 ± 0.055 | 1 ± 0.038 | 1.01 ± 0.068 | 0.992 ± 0.086 | 1.19 ± 0.093 |
| HARS (UniProt P12081) | 0.957 ± 0.036 | 0.9686 ± 0.0042 | 0.907 ± 0.021 | 0.888 ± 0.019 | 0.871 ± 0.029 | 0.883 ± 0.022 | 0.8654 ± 0.0017 | 0.853 ± 0.036 |
| UniProt P16298 and related entries | 1.01 ± 0.033 | 0.969 ± 0.029 | 0.985 ± 0.063 | 0.955 ± 0.036 | 0.959 ± 0.066 | 0.912 ± 0.092 | 0.974 ± 0.033 | 0.958 ± 0.062 |
| PTPN1 (UniProt P18031) | 0.9959 ± 0.0073 | 1 ± 0.018 | 0.944 ± 0.03 | 0.942 ± 0.04 | 0.908 ± 0.064 | 0.913 ± 0.043 | 0.906 ± 0.048 | 0.915 ± 0.091 |
| TPR (UniProt P12270) | 0.951 ± 0.07 | 0.976 ± 0.077 | 0.987 ± 0.072 | 0.95 ± 0.093 | 0.963 ± 0.072 | 0.98 ± 0.073 | 1.02 ± 0.061 | 1.04 ± 0.089 |
| UniProt P17980 and related entries | 0.951 ± 0.015 | 0.987 ± 0.035 | 0.98 ± 0.056 | 0.996 ± 0.058 | 1.02 ± 0.076 | 1.03 ± 0.1 | 1.03 ± 0.1 | 0.997 ± 0.11 |
| JAK1 (UniProt P23458) | 1.1 ± 0.07 | 1.15 ± 0.078 | 1.14 ± 0.083 | 1.16 ± 0.086 | 1.12 ± 0.1 | 1.14 ± 0.078 | 1.15 ± 0.068 | 1.14 ± 0.044 |
| ITGA5 (UniProt P08648) | 0.905 ± 0.069 | 0.881 ± 0.074 | 0.978 ± 0.096 | 0.957 ± 0.1 | 0.985 ± 0.085 | 0.96 ± 0.057 | 0.953 ± 0.077 | 1.02 ± 0.082 |
| RPL7 (UniProt P18124) | 0.956 ± 0.11 | 1.06 ± 0.16 | 1.07 ± 0.21 | 1.04 ± 0.29 | 0.887 ± 0.32 | 0.87 ± 0.3 | 0.546 ± 0.21 | 0.928 ± 0.35 |
| POLR2C (UniProt P19387) | 1.05 ± 0.023 | 1.08 ± 0.044 | 1.09 ± 0.052 | 1.13 ± 0.093 | 1.1 ± 0.086 | 1.11 ± 0.086 | 1.15 ± 0.14 | 1.1 ± 0.12 |
| UniProt P11171 and related entries | 0.989 ± 0.016 | 0.98 ± 0.019 | 0.9569 ± 0.0056 | 0.924 ± 0.016 | 0.943 ± 0.017 | 0.94 ± 0.033 | 0.9392 ± 0.0012 | 0.923 ± 0.047 |
| ZNF24 (UniProt P17028) | 1 ± 0.12 | 1.01 ± 0.062 | 1.02 ± 0.11 | 1.02 ± 0.097 | 1.03 ± 0.11 | 1.03 ± 0.058 | 1.05 ± 0.086 | 1.07 ± 0.07 |
| IFNGR1 (UniProt P15260) | 0.993 ± 0.018 | 0.99 ± 0.055 | 1.03 ± 0.052 | 0.993 ± 0.078 | 0.957 ± 0.05 | 0.956 ± 0.064 | 0.963 ± 0.033 | 0.969 ± 0.057 |
| MCM3 (UniProt P25205) | 0.998 ± 0.035 | 1.04 ± 0.06 | 0.986 ± 0.074 | 1.01 ± 0.11 | 1.02 ± 0.11 | 1.01 ± 0.1 | 0.978 ± 0.076 | 0.966 ± 0.059 |
| CREB1 (UniProt P16220) | 0.911 ± 0.17 | 0.9 ± 0.049 | 0.902 ± 0.13 | 0.902 ± 0.11 | 0.922 ± 0.17 | 0.87 ± 0.078 | 0.877 ± 0.13 | 0.949 ± 0.15 |
| TXN (UniProt P10599) | 0.954 ± 0.088 | 0.941 ± 0.064 | 0.936 ± 0.1 | 0.863 ± 0.1 | 0.84 ± 0.097 | 0.877 ± 0.11 | 0.865 ± 0.075 | 0.862 ± 0.083 |
